Measurements published in the supplement of paper PMC6078165.
The reference is the same well before dosing, and untreated signal decays as well.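 Labels refer to human fibroblasts, largely primary: uterine (C12385, HUF), lung (H6013), bone (Hs27A), adrenal (HADF), skin (WS1), plus mammary HMF and breast cancer-associated Hs343T. Cancer lines are basal-like or mesenchymal-like triple-negative breast cancer. The paper counts as hits responses shifting over 3x the replicate standard deviation. The tissue of the other fibroblasts is not given here.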

Test system: MDAMB468
Assay: relative JC-1 red fluorescence (viability) vs pre-drug, coculture with fibroblast (fraction); higher = more viable cancer cells
Conditions: 100 µM
Procedure: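 JC-1 labelled TNBC cells cocultured 1:1 (1,500 cells each) with CellTrace Violet stained primary or stromal fibroblasts in 384-well plates in FluoroBrite medium, treated with one of 42 anticancer drugs at 0.1, 1, 10 or 100 uM. JC-1 red fluorescence (mitochondrial integrity in cancer cells only) was read by plate reader every 8 h for 72 h. Values are normalised to each well's pre-drug value. The stock of one drug was tenfold lower, so its dose labels may be too high.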

CC[C@]1(O)C[C@@H]2CN(CCc3c([nH]c4ccccc34)[C@@](C(=O)OC)(c3cc4c(cc3OC)N(C)[C@H]3[C@@](O)(C(=O)OC)[C@H](OC(C)=O)[C@]5(CC)C=CCN6CC[C@]43[C@@H]65)C2)C1 [Vinblastine]
relative JC-1 red fluorescence
Conditions | 8 h | 16 h | 24 h | 32 h | 40 h | 48 h | 56 h | 64 h | 72 h
coculture fibroblast: C12385 | 0.869 | 0.732 | 0.428 | 0.221 | 0.156 | 0.133 | 0.0952 | 0.07 | 0.0528
coculture fibroblast: H6013 | 0.82 | 0.722 | 0.476 | 0.323 | 0.2566 | 0.228 | 0.1814 | 0.153 | 0.103
coculture fibroblast: H6019 | 0.913 | 0.753 | 0.472 | 0.32 | 0.251 | 0.222 | 0.186 | 0.161 | 0.148
coculture fibroblast: H6076 | 0.878 | 0.8499 | 0.612 | 0.465 | 0.318 | 0.269 | 0.216 | 0.179 | 0.212
coculture fibroblast: H6231 | 0.803 | 0.915 | 0.839 | 0.816 | 0.769 | 0.718 | 0.607 | 0.552 | 0.525
coculture fibroblast: HADF | 0.8635 | 0.8114 | 0.529 | 0.336 | 0.259 | 0.226 | 0.172 | 0.147 | 0.097
coculture fibroblast: HCFa | 0.851 | 0.898 | 0.6716 | 0.479 | 0.373 | 0.329 | 0.272 | 0.233 | 0.18
coculture fibroblast: HCPF | 0.913 | 0.828 | 0.943 | 0.93 | 0.949 | 0.945 | 0.907 | 0.871 | 0.855
coculture fibroblast: HHSteC | 0.8804 | 0.741 | 0.479 | 0.306 | 0.25 | 0.236 | 0.17 | 0.143 | 0.0959
coculture fibroblast: HMF | 0.945 | 0.777 | 0.784 | 0.811 | 0.933 | 0.84 | 0.947 | 0.919 | 0.908
coculture fibroblast: HPFa | 0.8874 | 0.9472 | 0.714 | 0.453 | 0.37 | 0.338 | 0.268 | 0.244 | 0.175
coculture fibroblast: HUF | 0.843 | 0.858 | 0.609 | 0.368 | 0.2552 | 0.217 | 0.164 | 0.144 | 0.123
coculture fibroblast: Hs5 | 0.93 | 0.871 | 0.663 | 0.472 | 0.322 | 0.263 | 0.222 | 0.183 | 0.194
coculture fibroblast: Hs27A | 0.814 | 0.886 | 0.6 | 0.354 | 0.2565 | 0.223 | 0.1841 | 0.156 | 0.106
coculture fibroblast: Hs343T | 0.869 | 0.934 | 0.734 | 0.638 | 0.55 | 0.529 | 0.473 | 0.446 | 0.438
coculture fibroblast: WS1 | 0.818 | 0.624 | 0.36 | 0.242 | 0.173 | 0.138 | 0.102 | 0.0747 | 0.063
